These are yes or no findings as the source states them, for the method shown. In cells and extracts the contact can be indirect. Some binding calls cover weakened binding; strength is not graded here.

Chains of the proteins cited; added tags and fusions are not shown.
UniProt O35129: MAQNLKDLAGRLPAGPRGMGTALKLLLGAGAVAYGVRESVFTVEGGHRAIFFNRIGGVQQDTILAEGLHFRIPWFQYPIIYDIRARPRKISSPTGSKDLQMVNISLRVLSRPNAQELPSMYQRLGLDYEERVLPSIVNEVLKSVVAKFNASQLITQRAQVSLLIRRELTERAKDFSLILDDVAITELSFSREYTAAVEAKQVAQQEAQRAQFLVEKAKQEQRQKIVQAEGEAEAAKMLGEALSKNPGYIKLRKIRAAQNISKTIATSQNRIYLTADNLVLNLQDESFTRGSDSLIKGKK

The text below walks through data of article PMC11404314.

The assay deals with prohibitin 2 (PHB2) (mouse (endogenous in HL-1)) (UniProt O35129). The assay can be described thus: co-IP; HL-1 cardiomyocytes in normal (5.5 mmol/l) or high-glucose (30 mmol/l, 48 h) medium; lysate precleared, primary antibody overnight at 4 °C, protein G agarose, western blot; IgG control.

B1: phosphoglycerate mutase 5 (PGAM5) (enzyme, UniProt Q8BX10 1-288)
chain: MAFRQALQLAACGLAGGSAAVLFSAVAVGKPRGGGDADTRATEPPAWTGARAGRGVWDTNWDRREPLSLINLKKRNVESGEDELTSRLDHYKAKATRHIFLIRHSQYHVDGSLEKDRTLTPLGREQAELTGLRLASLGLKFNKIVHSSMTRAVETTDIISKHLPGVSRVSTDLLREGAPIEPDPPVSHWKPEAVQYYEDGARIEAAFRNYIHRADARQEEDSYEIFICHANVIRYIVCRALQFPPEGWLRLSLNNGSITHLVIRPNGRVALRTLGDTGFMPPDKITRS
In the case of B1, the binding result is given as “binds”.
